Source: the supplement of paper PMC10849652
This is one part of the list.

By UniProt entry, the sequences of proteins in these tests, tags left out. Where a name states a change or a piece, a line headed by the entry shows the natural chain unless it says otherwise.
UniProt Q9NV56, whole entry, looked up: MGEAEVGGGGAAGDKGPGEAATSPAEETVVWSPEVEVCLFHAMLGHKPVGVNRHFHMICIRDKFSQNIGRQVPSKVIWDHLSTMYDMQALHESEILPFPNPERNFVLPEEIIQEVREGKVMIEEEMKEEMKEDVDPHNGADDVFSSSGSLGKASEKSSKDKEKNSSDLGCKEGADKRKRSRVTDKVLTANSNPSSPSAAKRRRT
UniProt P34949: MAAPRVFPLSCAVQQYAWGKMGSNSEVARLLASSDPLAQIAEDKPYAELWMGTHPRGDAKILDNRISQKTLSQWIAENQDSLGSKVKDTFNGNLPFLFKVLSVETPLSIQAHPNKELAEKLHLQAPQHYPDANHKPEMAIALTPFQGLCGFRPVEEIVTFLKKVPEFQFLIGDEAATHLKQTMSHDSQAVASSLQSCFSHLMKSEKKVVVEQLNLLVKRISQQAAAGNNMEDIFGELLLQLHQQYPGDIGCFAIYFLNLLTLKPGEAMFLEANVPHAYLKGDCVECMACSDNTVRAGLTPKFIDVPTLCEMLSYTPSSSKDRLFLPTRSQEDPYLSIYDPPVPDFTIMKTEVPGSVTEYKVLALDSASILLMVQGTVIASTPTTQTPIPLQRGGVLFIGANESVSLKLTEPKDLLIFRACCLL
UniProt O96033: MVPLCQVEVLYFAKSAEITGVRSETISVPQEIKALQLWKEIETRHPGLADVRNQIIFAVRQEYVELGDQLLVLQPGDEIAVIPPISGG
UniProt P49959: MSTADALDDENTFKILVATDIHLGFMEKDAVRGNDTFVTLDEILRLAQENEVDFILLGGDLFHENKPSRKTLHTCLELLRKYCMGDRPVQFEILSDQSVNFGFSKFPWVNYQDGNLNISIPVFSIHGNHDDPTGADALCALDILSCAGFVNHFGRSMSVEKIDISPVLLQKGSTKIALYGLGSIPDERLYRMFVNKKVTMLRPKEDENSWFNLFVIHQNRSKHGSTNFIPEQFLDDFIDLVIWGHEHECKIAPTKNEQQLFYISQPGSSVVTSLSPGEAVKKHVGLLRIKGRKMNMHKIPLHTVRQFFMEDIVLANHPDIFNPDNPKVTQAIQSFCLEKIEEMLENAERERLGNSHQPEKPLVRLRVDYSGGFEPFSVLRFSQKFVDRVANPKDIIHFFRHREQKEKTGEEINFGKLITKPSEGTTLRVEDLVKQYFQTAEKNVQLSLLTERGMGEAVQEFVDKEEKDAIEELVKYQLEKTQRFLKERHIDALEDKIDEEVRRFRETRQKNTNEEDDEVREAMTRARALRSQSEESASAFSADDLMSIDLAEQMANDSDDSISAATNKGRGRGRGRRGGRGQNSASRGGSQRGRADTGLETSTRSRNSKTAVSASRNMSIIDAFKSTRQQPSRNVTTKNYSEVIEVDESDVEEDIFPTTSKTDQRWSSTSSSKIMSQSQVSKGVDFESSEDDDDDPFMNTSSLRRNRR
UniProt Q13064: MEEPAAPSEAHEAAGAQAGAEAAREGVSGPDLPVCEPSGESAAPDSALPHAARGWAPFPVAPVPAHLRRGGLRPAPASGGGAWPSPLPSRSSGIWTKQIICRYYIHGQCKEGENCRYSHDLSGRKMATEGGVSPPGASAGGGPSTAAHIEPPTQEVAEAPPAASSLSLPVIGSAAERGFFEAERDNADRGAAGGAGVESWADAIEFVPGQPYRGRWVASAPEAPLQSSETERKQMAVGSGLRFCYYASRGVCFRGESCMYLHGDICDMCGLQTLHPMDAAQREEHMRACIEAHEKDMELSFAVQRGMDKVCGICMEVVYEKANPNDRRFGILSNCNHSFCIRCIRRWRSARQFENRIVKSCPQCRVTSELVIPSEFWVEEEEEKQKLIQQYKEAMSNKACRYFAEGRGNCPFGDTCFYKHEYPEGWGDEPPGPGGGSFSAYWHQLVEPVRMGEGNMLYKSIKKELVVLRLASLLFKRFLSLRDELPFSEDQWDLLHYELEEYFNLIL
UniProt Q13015: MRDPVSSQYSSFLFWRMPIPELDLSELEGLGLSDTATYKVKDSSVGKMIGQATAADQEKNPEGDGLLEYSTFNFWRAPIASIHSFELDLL
UniProt P29372, whole entry, looked up: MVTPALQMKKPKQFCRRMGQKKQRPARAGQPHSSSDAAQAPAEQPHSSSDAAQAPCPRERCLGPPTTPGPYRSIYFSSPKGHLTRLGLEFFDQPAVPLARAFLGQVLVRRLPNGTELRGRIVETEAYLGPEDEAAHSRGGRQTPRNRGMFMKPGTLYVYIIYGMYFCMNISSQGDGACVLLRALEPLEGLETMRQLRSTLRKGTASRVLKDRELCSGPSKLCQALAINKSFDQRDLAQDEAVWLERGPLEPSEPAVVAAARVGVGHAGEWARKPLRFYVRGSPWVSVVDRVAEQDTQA
UniProt Q9UL63, whole entry, looked up: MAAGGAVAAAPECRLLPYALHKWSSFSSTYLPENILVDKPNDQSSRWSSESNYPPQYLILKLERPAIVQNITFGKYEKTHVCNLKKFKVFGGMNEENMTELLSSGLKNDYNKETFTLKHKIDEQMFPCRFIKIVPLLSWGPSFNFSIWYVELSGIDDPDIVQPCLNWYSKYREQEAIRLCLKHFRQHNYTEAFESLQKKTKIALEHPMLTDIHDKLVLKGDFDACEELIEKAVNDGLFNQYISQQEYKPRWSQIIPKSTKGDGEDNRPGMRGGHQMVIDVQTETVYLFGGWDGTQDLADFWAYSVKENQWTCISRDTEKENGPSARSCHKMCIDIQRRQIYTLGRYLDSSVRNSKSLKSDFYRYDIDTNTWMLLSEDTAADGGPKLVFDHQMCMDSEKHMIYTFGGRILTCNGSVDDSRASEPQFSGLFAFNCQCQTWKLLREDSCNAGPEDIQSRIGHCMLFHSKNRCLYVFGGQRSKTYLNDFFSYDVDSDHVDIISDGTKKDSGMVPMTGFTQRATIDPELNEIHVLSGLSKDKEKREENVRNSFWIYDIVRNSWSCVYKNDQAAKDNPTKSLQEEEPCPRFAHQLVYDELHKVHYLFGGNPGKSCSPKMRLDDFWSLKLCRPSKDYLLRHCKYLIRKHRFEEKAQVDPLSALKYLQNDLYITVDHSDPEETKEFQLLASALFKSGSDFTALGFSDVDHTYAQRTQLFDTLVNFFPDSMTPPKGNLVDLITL
UniProt O95297: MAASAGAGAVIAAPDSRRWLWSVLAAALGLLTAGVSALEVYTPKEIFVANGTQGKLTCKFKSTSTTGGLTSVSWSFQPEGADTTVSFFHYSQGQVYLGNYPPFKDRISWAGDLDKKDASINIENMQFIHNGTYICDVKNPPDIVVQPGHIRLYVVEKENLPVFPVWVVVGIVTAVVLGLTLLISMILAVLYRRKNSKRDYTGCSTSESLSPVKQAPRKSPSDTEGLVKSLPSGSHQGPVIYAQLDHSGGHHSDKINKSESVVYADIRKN
UniProt Q8NB16: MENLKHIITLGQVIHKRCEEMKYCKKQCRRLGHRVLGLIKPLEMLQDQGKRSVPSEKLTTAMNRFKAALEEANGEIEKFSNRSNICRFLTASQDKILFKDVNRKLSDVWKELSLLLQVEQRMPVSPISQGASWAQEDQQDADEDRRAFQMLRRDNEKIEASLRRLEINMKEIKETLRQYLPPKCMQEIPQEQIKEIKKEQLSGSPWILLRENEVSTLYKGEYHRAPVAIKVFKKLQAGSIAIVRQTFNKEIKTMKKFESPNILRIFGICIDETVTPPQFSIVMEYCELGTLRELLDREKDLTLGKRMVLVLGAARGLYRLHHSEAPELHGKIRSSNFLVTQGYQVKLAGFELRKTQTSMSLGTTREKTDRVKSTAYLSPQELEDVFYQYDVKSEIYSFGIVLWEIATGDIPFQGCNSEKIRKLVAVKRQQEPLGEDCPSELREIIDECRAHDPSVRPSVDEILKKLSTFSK
UniProt Q9Y5U8: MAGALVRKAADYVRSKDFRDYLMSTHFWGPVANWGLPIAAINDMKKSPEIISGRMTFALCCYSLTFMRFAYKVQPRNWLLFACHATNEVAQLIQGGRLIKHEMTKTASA
UniProt Q6NTE8: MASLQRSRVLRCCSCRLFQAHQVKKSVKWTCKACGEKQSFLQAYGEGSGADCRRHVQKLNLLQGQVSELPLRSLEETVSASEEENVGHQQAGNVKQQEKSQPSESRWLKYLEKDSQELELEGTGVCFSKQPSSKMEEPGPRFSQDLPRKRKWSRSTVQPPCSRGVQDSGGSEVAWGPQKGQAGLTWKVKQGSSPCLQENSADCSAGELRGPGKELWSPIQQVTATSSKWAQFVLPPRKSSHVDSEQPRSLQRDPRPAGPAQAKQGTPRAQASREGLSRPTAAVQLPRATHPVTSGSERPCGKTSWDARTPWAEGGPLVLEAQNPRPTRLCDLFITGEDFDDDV
UniProt P39210: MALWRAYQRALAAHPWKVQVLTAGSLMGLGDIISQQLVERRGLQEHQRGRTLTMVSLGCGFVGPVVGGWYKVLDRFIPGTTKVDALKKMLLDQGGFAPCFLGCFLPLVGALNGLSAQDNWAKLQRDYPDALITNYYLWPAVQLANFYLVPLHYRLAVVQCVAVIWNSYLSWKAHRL
UniProt Q99547: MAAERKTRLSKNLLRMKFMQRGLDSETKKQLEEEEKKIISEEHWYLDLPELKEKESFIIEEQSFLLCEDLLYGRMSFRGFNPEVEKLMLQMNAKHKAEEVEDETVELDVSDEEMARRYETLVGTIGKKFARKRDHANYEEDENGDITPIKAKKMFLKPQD
UniProt Q96EN8: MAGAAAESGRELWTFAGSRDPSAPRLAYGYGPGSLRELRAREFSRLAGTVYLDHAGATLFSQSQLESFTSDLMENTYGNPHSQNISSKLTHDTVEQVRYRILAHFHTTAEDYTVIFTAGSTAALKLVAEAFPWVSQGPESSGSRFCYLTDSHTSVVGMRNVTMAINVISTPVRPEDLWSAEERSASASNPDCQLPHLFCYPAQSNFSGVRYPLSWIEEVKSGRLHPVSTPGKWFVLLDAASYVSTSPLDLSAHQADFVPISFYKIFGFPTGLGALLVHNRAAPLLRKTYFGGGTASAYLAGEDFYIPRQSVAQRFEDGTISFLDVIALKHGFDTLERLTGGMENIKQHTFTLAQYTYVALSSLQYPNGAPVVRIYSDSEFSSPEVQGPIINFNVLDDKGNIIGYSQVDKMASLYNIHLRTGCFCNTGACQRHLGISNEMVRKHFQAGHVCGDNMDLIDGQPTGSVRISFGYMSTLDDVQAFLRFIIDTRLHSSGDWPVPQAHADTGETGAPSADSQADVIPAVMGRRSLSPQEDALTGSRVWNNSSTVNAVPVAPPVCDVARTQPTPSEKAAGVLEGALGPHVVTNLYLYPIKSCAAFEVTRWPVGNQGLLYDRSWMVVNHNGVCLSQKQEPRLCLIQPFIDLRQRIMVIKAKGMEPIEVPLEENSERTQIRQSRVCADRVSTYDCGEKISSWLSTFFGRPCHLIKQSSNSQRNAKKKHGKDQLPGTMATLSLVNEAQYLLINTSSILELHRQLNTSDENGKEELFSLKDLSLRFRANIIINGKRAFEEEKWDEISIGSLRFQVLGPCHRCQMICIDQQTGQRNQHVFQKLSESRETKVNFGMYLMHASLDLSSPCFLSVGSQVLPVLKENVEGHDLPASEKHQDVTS
UniProt P08473: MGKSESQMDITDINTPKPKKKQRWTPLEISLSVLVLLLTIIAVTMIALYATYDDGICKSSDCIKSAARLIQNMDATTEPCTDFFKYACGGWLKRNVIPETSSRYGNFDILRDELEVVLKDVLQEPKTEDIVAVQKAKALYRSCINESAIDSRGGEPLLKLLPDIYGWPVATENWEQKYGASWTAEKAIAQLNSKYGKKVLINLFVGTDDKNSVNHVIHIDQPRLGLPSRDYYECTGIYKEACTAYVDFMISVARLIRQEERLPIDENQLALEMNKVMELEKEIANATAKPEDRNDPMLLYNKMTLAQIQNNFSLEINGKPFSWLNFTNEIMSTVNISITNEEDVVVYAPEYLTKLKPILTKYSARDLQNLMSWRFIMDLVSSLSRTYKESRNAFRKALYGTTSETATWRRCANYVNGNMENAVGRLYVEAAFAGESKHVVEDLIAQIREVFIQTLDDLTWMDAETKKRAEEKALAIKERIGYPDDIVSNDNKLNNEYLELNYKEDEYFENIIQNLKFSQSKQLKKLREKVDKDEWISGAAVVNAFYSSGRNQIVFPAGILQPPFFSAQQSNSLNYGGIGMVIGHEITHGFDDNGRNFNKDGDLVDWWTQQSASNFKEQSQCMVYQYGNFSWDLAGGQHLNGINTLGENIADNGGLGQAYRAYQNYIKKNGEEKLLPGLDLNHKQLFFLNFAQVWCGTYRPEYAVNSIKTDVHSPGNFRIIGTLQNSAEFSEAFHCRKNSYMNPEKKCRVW
UniProt O95563: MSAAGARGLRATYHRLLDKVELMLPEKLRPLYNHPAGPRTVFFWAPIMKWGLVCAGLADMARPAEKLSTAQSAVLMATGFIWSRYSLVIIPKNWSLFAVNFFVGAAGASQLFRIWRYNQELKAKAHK

Compound: c1cn2cc(-c3ccc4cn[nH]c4c3)nc(Nc3ccc(N4CCOCC4)cc3)c2n1 [entospletinib]
Assay: log2 fold change, soluble protein after heating vs DMSO (PISA); higher = thermal stabilisation; K562 cells, 10 uM, 30 min; active = over 0.2 and 3.5 SD of the protein, either way, in both replicates (recomputed)
Procedure, shortened: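 Quantification of soluble protein used TMTpro 16plex LC-MS/MS, with channel sums equalised. Samples were the supernatant after 21,000xg for 90 min of pooled aliquots from K562 cells (2×10^6 cells/mL) treated with 10 μM compound for 30 min, heated for 3 min over 48°C-58°C, and extracted in PBS with 0.5% NP-40 at 4°C. Values, from duplicates, describe thermal stability against control samples on a log2 fold-change scale.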

log2 fold change, inactive:
MRPL22 (UniProt Q9NWU5) 0.071, MRPL14 (UniProt Q6P1L8) -0.003, MRGBP (UniProt Q9NV56) 0.031, MPI (UniProt P34949) -0.225, MRPL10 isoform 2 (UniProt Q7Z7H8) 0.111, MOCS2 (UniProt O96033) 0.009, MRE11 isoform 3 (UniProt P49959) 0.013, MRPL19 (UniProt P49406) 0.038, MKRN3 (UniProt Q13064) 0.007, MLLT11 (UniProt Q13015) -0.087, MRPL37 (UniProt Q9BZE1) 0.11, MPG (UniProt P29372) -0.042, MRPL4 (UniProt Q9BYD3) 0.069, MRPL53 (UniProt Q96EL3) 0.063, MRPL33 (UniProt O75394) 0.09, MKLN1 (UniProt Q9UL63) -0.055, MRPL51 (UniProt Q4U2R6) 0.187, MPZL1 (UniProt O95297) 0.022, MLKL (UniProt Q8NB16) -0.112, MRPL54 (UniProt Q6P161) 0.134, MPC1 (UniProt Q9Y5U8) -0.05, MRPL48 (UniProt Q96GC5) 0.062, MRNIP (UniProt Q6NTE8) 0.193, MRPL1 (UniProt Q9BYD6) 0.045, MPV17 (UniProt P39210) 0.11, MPHOSPH6 (UniProt Q99547) 0.019, MOCOS (UniProt Q96EN8) 0.093, MRPL17 (UniProt Q9NRX2) 0.026, MME (UniProt P08473) 0.112, MRPL57 (UniProt Q9BQC6) 0.107, MRPL20 (UniProt Q9BYC9) 0.052, MPC2 (UniProt O95563) -0.033
